Measured data: PubChem BioAssay AID652243 (Drosophila RNAi Screening Center, 2013)
Aim: 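Fly genes required for human androgen receptor driven transcription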 (primary screen). System: Drosophila S2R+ cells. Knock-down reagent: long dsRNA against Drosophila genes. Duration: 72 h (48 h, then 24 h hormone). Treatment: synthetic androgen R1881 at 10 nM for 24 h. Measured: 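Per-well raw luminescence of the androgen-driven firefly reporter and of the Renilla control, two replicates each, without normalisation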. Direction: firefly reporter light: higher = more light from androgen-responsive reporter; Renilla control light: higher = more constitutive control signal (cell number, transfection). Rule for the call: 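Across duplicate plates, a knock-down whose log firefly/Renilla ratio shifted a set fold down or up from the GFP/LacZ control mean was a hit; the downward cut appears as both 1.5 and 3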. Meaning of the calls: active = hit: reporter lowered or raised; inactive = no hit.
In all, the deposit lists about 24,000 reagents; below is a random part of those with a known target gene and a result. Over the whole deposit, 246 (1%) were called active. 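Plates not normalised; calls are printed but the firefly/Renilla ratio behind them is not deposited; fold cut for lowering reported inconsistently.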 Raw values vary from plate to plate and are shown uncorrected. A plus sign joins genes that one reagent is predicted to hit. Reagent sequences are not shown. The record does not give: the amount of reagent.

gene | DRSC id | firefly reporter light, replicate 1 | firefly reporter light, replicate 2 | Renilla control light, replicate 1 | Renilla control light, replicate 2 | outcome
CG5854 | DRSC15894 | 3.62e5 | 4.90e5 | 3.05e6 | 3.72e6 | inactive
CG5854 | DRSC28599 | 4.85e5 | 3.73e5 | 1.67e6 | 1.35e6 | inactive
tsr | DRSC04718 | 5.38e5 | 6.49e5 | 2.61e6 | 3.55e6 | inactive
ND-SGDH | DRSC11102 | 3.76e5 | 3.07e5 | 4.47e6 | 3.19e6 | inactive
CG7950 + Rpp14a | DRSC16353 | 78293 | 65592 | 9.26e5 | 6.66e5 | inactive
CG7950 + Rpp14a | DRSC28664 | 5.20e5 | 4.44e5 | 1.54e6 | 1.39e6 | inactive
yellow-d2 | DRSC04591 | 3.29e5 | 3.20e5 | 1.61e6 | 1.17e6 | inactive
jvl | DRSC13053 | 45375 | 20345 | 53354 | 56823 | inactive
jvl | DRSC15495 | 62259 | 1.19e5 | 6.07e5 | 8.93e5 | inactive
jvl | DRSC27452 | 2.87e5 | 2.97e5 | 7.54e5 | 7.53e5 | inactive
jvl | DRSC38672 | 8.16e5 | 8.83e5 | 1.33e6 | 1.30e6 | inactive
mRpL54 | DRSC04545 | 7.37e5 | 5.96e5 | 2.11e6 | 2.40e6 | inactive
Vha100-2 | DRSC14152 | 1.34e5 | 93925 | 8.97e5 | 6.58e5 | inactive
Vha100-2 | DRSC29227 | 5.13e5 | 4.51e5 | 1.19e6 | 9.72e5 | inactive
DnaJ-1 | DRSC11145 | 5.59e5 | 6.89e5 | 1.01e6 | 1.02e6 | inactive
fs(1)N | DRSC18578 | 3.82e5 | 3.91e5 | 4.70e6 | 4.10e6 | inactive
IntS10 | DRSC08173 | 78045 | 87486 | 1.12e6 | 1.33e6 | inactive
CG4294 | DRSC04460 | 7.29e5 | 5.69e5 | 8.77e5 | 7.76e5 | inactive
CG4318 | DRSC19887 | 4.89e5 | 6.39e5 | 4.59e6 | 5.44e6 | inactive
Irk1 | DRSC14686 | 2.47e5 | 2.20e5 | 2.25e6 | 2.26e6 | inactive
Irk1 | DRSC16106 | 2.72e5 | 2.77e5 | 2.13e6 | 2.56e6 | inactive
Irk1 | DRSC28063 | 4.79e5 | 4.93e5 | 1.58e6 | 1.49e6 | inactive
Spindly | DRSC00430 | 1.33e5 | 1.58e5 | 7.14e5 | 6.54e5 | inactive
PolH | DRSC11800 | 70126 | 57870 | 4.44e5 | 3.95e5 | inactive
Patsas | DRSC02975 | 1.56e6 | 7.22e5 | 2.64e6 | 1.80e6 | inactive
Patsas | DRSC28826 | 4.52e5 | 4.40e5 | 1.09e6 | 1.21e6 | inactive
CG31775 + CG42586 | DRSC23266 | 8.03e5 | 9.86e5 | 1.23e6 | 1.53e6 | inactive
p115 | DRSC18813 | 2.68e5 | 2.69e5 | 2.34e6 | 3.28e6 | inactive
CG5504 | DRSC04701 | 3.39e5 | 6.60e5 | 7.81e5 | 1.52e6 | inactive
CG2444 | DRSC19846 | 2.27e5 | 1.82e5 | 3.92e6 | 3.47e6 | inactive
Sce | DRSC23442 | 1.43e5 | 2.01e5 | 7.26e5 | 3.87e5 | inactive
CG1941 | DRSC06802 | 5.15e5 | 5.29e5 | 1.34e6 | 1.86e6 | inactive
CG14207 | DRSC19562 | 75862 | 1.03e5 | 6.68e5 | 7.67e5 | inactive
CG14207 | DRSC19563 | 1.45e5 | 1.50e5 | 4.32e5 | 2.30e5 | inactive
CG5916 | DRSC15917 | 86369 | 59261 | 5.98e5 | 4.23e5 | inactive
CG6136 | DRSC15975 | 1.70e5 | 1.38e5 | 8.61e5 | 6.32e5 | inactive

In a second layout: results already given
| gene | DRSC id | firefly reporter light, replicate 1 | firefly reporter light, replicate 2 | Renilla control light, replicate 1 | Renilla control light, replicate 2 | outcome |
| --- | --- | --- | --- | --- | --- | --- |
| Vha100-2 | DRSC29227 | 5.13e5 | 4.51e5 | 1.19e6 | 9.72e5 | inactive |
| DnaJ-1 | DRSC11145 | 5.59e5 | 6.89e5 | 1.01e6 | 1.02e6 | inactive |
| fs(1)N | DRSC18578 | 3.82e5 | 3.91e5 | 4.70e6 | 4.10e6 | inactive |
| IntS10 | DRSC08173 | 78045 | 87486 | 1.12e6 | 1.33e6 | inactive |
| CG4294 | DRSC04460 | 7.29e5 | 5.69e5 | 8.77e5 | 7.76e5 | inactive |
| CG4318 | DRSC19887 | 4.89e5 | 6.39e5 | 4.59e6 | 5.44e6 | inactive |
| Irk1 | DRSC14686 | 2.47e5 | 2.20e5 | 2.25e6 | 2.26e6 | inactive |
| Irk1 | DRSC16106 | 2.72e5 | 2.77e5 | 2.13e6 | 2.56e6 | inactive |

Next reagents follow:
gene | DRSC id | firefly reporter light, replicate 1 | firefly reporter light, replicate 2 | Renilla control light, replicate 1 | Renilla control light, replicate 2 | outcome
CG31100 | DRSC14453 | 1.09e5 | 2.10e5 | 2.40e6 | 2.65e6 | inactive
CG31100 | DRSC14455 | 89070 | 1.12e5 | 2.26e6 | 1.54e6 | inactive
CG31050 | DRSC13883 | 90441 | 83677 | 1.16e5 | 1.17e5 | inactive
ND-39 | DRSC11791 | 54912 | 41919 | 3.20e5 | 3.57e5 | inactive
ND-39 | DRSC28392 | 3.62e5 | 7.25e5 | 1.27e6 | 1.48e6 | inactive
Rap1 | DRSC08686 | 9.20e5 | 6.16e5 | 1.38e6 | 1.06e6 | inactive
Rap1 | DRSC25388 | 4.65e5 | 4.27e5 | 5.28e5 | 5.77e5 | inactive
ksr | DRSC12379 | 45164 | 69529 | 8.52e5 | 1.01e6 | inactive
ksr | DRSC36701 | 6.60e5 | 5.90e5 | 1.36e6 | 1.36e6 | inactive
ksr | DRSC36702 | – | – | – | – | inactive
nab | DRSC08455 | 1.80e5 | 1.90e5 | 1.75e6 | 1.97e6 | inactive
nab | DRSC08456 | 60175 | 1.11e5 | 1.84e6 | 2.25e6 | inactive
CG45263 | DRSC14360 | 77068 | 87987 | 2.14e6 | 1.89e6 | inactive
CG45263 | DRSC14361 | 58003 | 61895 | 1.49e6 | 1.33e6 | inactive
CG45263 | DRSC14363 | 69410 | 84816 | 2.24e6 | 1.84e6 | inactive
CG45263 | DRSC24974 | 1.08e6 | 1.11e6 | 8.13e5 | 1.11e6 | inactive
ninaD | DRSC02886 | 1.76e5 | 1.81e5 | 1.42e6 | 1.92e6 | inactive
ninaD | DRSC24484 | 5.53e5 | 3.77e5 | 4.19e5 | 4.23e5 | inactive
nanos | DRSC17018 | 85606 | 1.12e5 | 1.53e6 | 1.77e6 | inactive
nanos | DRSC25268 | 3.44e5 | 2.16e5 | 4.18e5 | 4.57e5 | inactive
TfIIB | DRSC03454 | 1.89e5 | 1.66e5 | 1.28e6 | 1.19e6 | inactive
Hnf4 | DRSC03344 | 1.21e6 | 1.02e6 | 4.40e6 | 4.34e6 | inactive
Hnf4 | DRSC26864 | 3.24e5 | 3.05e5 | 4.41e5 | 5.75e5 | inactive
